These are yes or no findings as the source states them, for the method shown. Binding seen in cells or lysates may run through a third protein. Some entries that bind do so weakly or less than the wild type.
Biological target: HALO-NEDP1 C163A (UniProt Q96LD8)
Test: pull-down; recombinant HALO-NEDP1 (CA or DAGC) conjugated to HALO-Link beads, incubated with lysates of HEK 293 WT and NEDP1 KO cells; Western blot; only the target purified

The chains behind the UniProt entries cited, without tags or fusion partners. Where a name states a change or a piece, a line headed by the entry shows the natural chain unless it says otherwise.
UniProt Q96LD8: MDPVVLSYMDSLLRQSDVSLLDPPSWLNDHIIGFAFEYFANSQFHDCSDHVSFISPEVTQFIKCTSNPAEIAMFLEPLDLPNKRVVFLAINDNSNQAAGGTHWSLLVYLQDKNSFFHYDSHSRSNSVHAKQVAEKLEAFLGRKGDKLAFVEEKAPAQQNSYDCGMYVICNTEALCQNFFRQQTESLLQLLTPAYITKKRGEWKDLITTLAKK
UniProt Q99627: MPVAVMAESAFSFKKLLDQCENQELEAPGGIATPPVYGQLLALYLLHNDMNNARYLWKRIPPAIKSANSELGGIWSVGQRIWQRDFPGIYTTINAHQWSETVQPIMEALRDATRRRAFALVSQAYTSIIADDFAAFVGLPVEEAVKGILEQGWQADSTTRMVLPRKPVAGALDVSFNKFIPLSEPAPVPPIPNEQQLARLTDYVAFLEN
UniProt Q92905: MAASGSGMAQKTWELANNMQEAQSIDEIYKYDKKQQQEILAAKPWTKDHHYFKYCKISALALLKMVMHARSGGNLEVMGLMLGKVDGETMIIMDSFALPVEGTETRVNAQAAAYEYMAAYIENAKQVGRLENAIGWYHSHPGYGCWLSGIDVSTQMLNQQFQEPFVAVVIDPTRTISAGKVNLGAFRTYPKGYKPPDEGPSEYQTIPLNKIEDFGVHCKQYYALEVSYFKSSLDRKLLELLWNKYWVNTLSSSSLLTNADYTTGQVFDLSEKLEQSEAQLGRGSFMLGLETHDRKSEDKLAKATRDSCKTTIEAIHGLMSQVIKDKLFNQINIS

Q: With CSN8 (from UniProt Q99627 1-209) as the substance, how does the binding read?
A: binds

Q: How did the binding turn out when CSN5 (from UniProt Q92905 1-334) was run?
A: binds

Reference: article PMC6418418
